The nature of the assay: IkB Signaling. The conditions noted are these: ABC-DLBCL IkBa-CBG/CBR dual luciferase ratio (green luciferase fused to IkBa over red control in OCI-Ly3 lymphoma cells), 4 h. The essentials: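 Luminescence ratio of IκBα-fused green versus native red beetle luciferase in OCI-Ly3 cells, 4 h post-doxycycline with compound; red signal alone, scaled from basal (0%) to zero light (-100%), flagged nonspecific or cytotoxic effects.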
The mark [1] stands for this setting: measured here: control luc red channel unless noted.

Broadly, the AC50 is the concentration giving half of the maximal activity seen.

The other results are listed elsewhere or left out. Further columns of the screen follow, without active or inactive calls. Most of these compounds were active or inconclusive in the main read-out, so they are no random draw. The note in brackets gives the kind of curve behind each potency; many fits are weak.

`CCCCc1ccc(NC(=O)CSc2nc3ccccc3nc2N2CCCCC2)cc1`: the AC50 under setting [1] was 39.8 µM [falling, single point].

Regarding `O=C(CSc1nc2ccccc2c(=O)n1CC1CCCO1)N1CCN(c2ccccc2)CC1` (centres undefined), the AC50 under setting [1] is 10 µM [falling, partial curve].

For the molecule `CCOc1ccc(NC(=O)C(CC)n2nc(C)c3c(C)n(-c4ccccc4)nc3c2=O)cc1` (centres undefined), the half-maximal activity concentration (AC50) under setting [1] was 31.6 µM [falling, single point].

For `Cn1c(=O)oc2cc(S(=O)(=O)NCC3CCCO3)ccc21` (centres undefined), the half-maximal activity concentration (AC50) under setting [1] was 2.51 µM [falling, full curve].

With `Cc1ccc(NC(=O)CN2C(=O)CC(c3ccco3)Sc3ccccc32)cc1Cl` (centres undefined), the AC50 under setting [1] was 0.158 µM [falling, full curve].

In the case of `CCOC(=O)C1CCN(C(c2cc3ccc(C)cc3[nH]c2=O)c2nnnn2C2CCCCC2)CC1` (centres undefined), under setting [1], the AC50 was 25.1 µM [falling, partial curve].

With `C=CCn1c(SCC(=O)c2cc(C)n(C(C)COC)c2C)nc2sc(C)c(C)c2c1=O` (centres undefined), the AC50 under setting [1] is 10 µM [falling, partial curve].

For `COc1cccc(CN2C(=O)C3(SCC(=O)N3c3ccc(C)c(Cl)c3)c3ccccc32)c1` (centres undefined), the concentration at half-maximal activity (AC50) under setting [1] is 7.94 µM [falling, full curve].

With `CC1Cc2cc(S(=O)(=O)CCC(=O)Nc3ccccc3F)ccc2N1C(=O)C1CC1` (centres undefined), under setting [1], the half-maximal activity concentration (AC50) was 10 µM [rising, partial curve].

For `CC(=O)c1c(C)[nH]c(C(=O)OCc2nnc(-c3ccccc3)o2)c1C`, the AC50 under setting [1] was 20 µM [falling, partial curve].

With `CC[C@@]1(O)C(=O)OCc2c1cc1n(c2=O)Cc2cc3c(CN(C)C)c(O)ccc3nc2-1`, under setting [1], the half-maximal activity concentration (AC50) is 0.398 µM [falling, full curve].

On to `CCCCC(=O)N1CCc2cc(OC)c(OC)cc2C1COc1ccc(C(=O)OCC)cc1` (centres undefined), for which the AC50 under setting [1] is 39.8 µM [falling, single point].

Take `COc1ccc(N=Cc2c(O)[nH]c3ccccc23)cc1OC`: the AC50 under setting [1] was 6.31 µM [falling, partial curve].

For the molecule `COc1ccc(-c2nc3n(n2)C(c2ccccc2OC)C(C(=O)Nc2cccnc2)=C(C)N3)cc1` (centres undefined), under setting [1], the concentration at half-maximal activity (AC50) was 25.1 µM [falling, partial curve].

On to `CCOc1ccccc1NC(=O)c1c2c(nc3ccccc13)C(=O)N(C1CCCCC1)C2`, for which the AC50 under setting [1] was 15.8 µM [falling, partial curve].

`O=C(C1CCC(CNS(=O)(=O)c2ccc(Br)s2)CC1)N1CCN(c2ccc(F)cc2)CC1` (centres undefined): the concentration at half-maximal activity (AC50) under setting [1] is 1.58 µM [falling, partial curve].

For the molecule `COc1ccc(CNC(=O)c2ccc3c(c2)nc2n3CCCCC2)cc1`, the AC50 under setting [1] is 15.8 µM [falling, partial curve].

For `Cc1ccc(NS(=O)(=O)c2ccc3c(c2)N(C)C(=O)CC(=O)N3C)cc1Cl`, the AC50 under setting [1] was 15.8 µM [falling, partial curve].

As to `CCCOc1c(OC)cccc1C1CC(=O)Nc2cc3c(cc21)OCCO3` (centres undefined), the AC50 under setting [1] was 3.16 µM [falling, full curve].

In the case of `COc1ccccc1C1C(C(=O)c2cc3ccccc3o2)=C(O)C(=O)N1CCN(C)C` (centres undefined), the half-maximal activity concentration (AC50) under setting [1] was 12.6 µM [falling, partial curve].

In the case of `N#C/C(=C\c1ccc(OCc2ccc(Cl)cc2Cl)cc1)c1nc2ccccc2[nH]1`, the AC50 under setting [1] was 6.31 µM [falling, partial curve].

`C=CCn1c(SCC(=O)Nc2cccc(C(=O)OC)c2)nnc1C(C)NC(=O)c1cccs1` (centres undefined): the concentration at half-maximal activity (AC50) under setting [1] was 15.8 µM [falling, partial curve].

With `O=C(Nc1cccc(Br)c1)N1CCN2CCCCC2C1` (centres undefined), the AC50 under setting [1] was 12.6 µM [falling, partial curve].

Take `COc1ccc(OC)c(CNC(=O)c2cc3c(Cl)nc4ccccc4c3s2)c1`: under setting [1], the half-maximal activity concentration (AC50) was 12.6 µM [falling, partial curve].

As for `CCCNC(=O)Cn1nc(-c2ccc(OC)cc2)c2cnc3ccc(F)cc3c21`, under setting [1], the AC50 is 0.0158 µM [rising, full curve, poor fit].

With `C=CCc1c(C)nc(SCc2nc3ccccc3c(=O)[nH]2)[nH]c1=O`, under setting [1], the AC50 is 20 µM [falling, partial curve].

For the molecule `COc1cccc(-c2cc3nc4c(c(N5CCC6(CC5)OCCO6)n3n2)CCCC4)c1`, the concentration at half-maximal activity (AC50) under setting [1] is 5.01 µM [falling, full curve].

Regarding `O=C(NCc1ccco1)c1ccc2c(c1)N(Cc1ccccc1)C(=O)c1ccccc1S2`, the AC50 under setting [1] is 20 µM [falling, single point].

With `CCC1CCCCN1C(=O)c1c[nH]c2ccc(S(=O)(=O)Nc3cccc(OC)c3)cc2c1=O` (centres undefined), the AC50 under setting [1] was 1.26 µM [falling, single point].

Take `Cc1cc(C)c(S(=O)(=O)NCCc2sc3nc(-c4ccc(F)cc4)nn3c2C)c(C)c1`: under setting [1], the AC50 is 25.1 µM [falling, partial curve].

With `CCOc1ccc(NC(=O)CCc2c(C)nc3cc(-c4ccccc4OC)nn3c2C)cc1`, under setting [1], the concentration at half-maximal activity (AC50) was 0.631 µM [falling, full curve].

For `COC(=O)c1ccc(CSc2c(C(C)C)cnc3c2c(=O)n(C)c(=O)n3C)cc1`, under setting [1], the AC50 was 20 µM [falling, partial curve].

`Cc1ccc(N(C)S(=O)(=O)c2ccc3[nH]c(=O)ccc3c2)cc1`: the half-maximal activity concentration (AC50) under setting [1] was 3.16 µM [falling, partial curve].

Take `CSc1nc(N)c(C#N)c(-c2ccc(Cl)cc2)c1C#N`: under setting [1], the AC50 was 39.8 µM [falling, single point].

For `Cc1ccc(NC(=O)c2sc3ncnc(N(C)C4CCCCC4)c3c2C)c(C)c1`, under setting [1], the AC50 is 25.1 µM [falling, single point].

For `O=C(CC1N=C2c3ccccc3N=C(SCc3cccc(Cl)c3)N2C1=O)NC1CCCCC1` (centres undefined), the AC50 under setting [1] is 25.1 µM [falling, single point].

Turning to `COc1ccc(NC(=O)CSc2nnc(-c3nnn(-c4ccc(F)cc4)c3C)o2)cc1`, under setting [1], the half-maximal activity concentration (AC50) is 25.1 µM [falling, partial curve].

As for `Cn1c(=NC(=O)c2ccc(F)cc2)sc2cc(Br)ccc21`, the concentration at half-maximal activity (AC50) under setting [1] was 39.8 µM [falling, partial curve, poor fit].

With `Cc1ccc(Cl)cc1-n1c(=O)cc(N2CCN(c3ccccc3)CC2)[nH]c1=O`, the half-maximal activity concentration (AC50) under setting [1] was 39.8 µM [falling, single point].

In the case of `Cc1cc2n(n1)CCCN2C(=O)Nc1ccccc1F`, the AC50 under setting [1] was 2 µM [rising, partial curve].

Turning to `COc1cccc(C(=O)N2CCC(c3nc4ccccc4s3)CC2)c1`, the AC50 under setting [1] was 20 µM [falling, single point].

Consider `COCCNc1cc(N2CCN(C3CCCCC3)CC2)c2noc3c2c1C(=O)c1ccccc1-3`, for which the half-maximal activity concentration (AC50) under setting [1] is 39.8 µM [falling, partial curve].

Turning to `CCOc1ccccc1NC(=O)c1ccc2c(c1)CCCN2S(C)(=O)=O`, the AC50 under setting [1] was 31.6 µM [falling, single point].

For `Cc1ccc(C(=O)Nc2nnc(SCc3cc(=O)c4c(C)ccc(C)c4[nH]3)s2)cc1`, the concentration at half-maximal activity (AC50) under setting [1] is 0.631 µM [falling, full curve, poor fit].

As for `O=C(C1COc2ccccc2O1)N(Cc1cccnc1)c1nc2c(F)cc(F)cc2s1` (centres undefined), under setting [1], the AC50 was 25.1 µM [falling, single point].

On to `Cc1ccc(Cl)cc1N1CCN(C(=O)c2c(C)oc3ncnc(N4CCOCC4)c23)CC1`, for which the AC50 under setting [1] was 31.6 µM [falling, partial curve].

In the case of `COC(=O)c1cccc(Nc2c(-c3cc(Br)ccc3O)nc3nc[nH]n23)c1`, the AC50 under setting [1] was 2.51 µM [falling, partial curve].

As for `CCOc1ccccc1NC(=O)c1c(NCc2ccc(OC)c(OC)c2OC)sc2c1CCC(C)C2` (centres undefined), the AC50 under setting [1] is 39.8 µM [falling, partial curve, poor fit].

Consider `O=C(Nc1nccs1)c1ccc(COc2ccccc2Br)o1`, for which the AC50 under setting [1] is 10 µM [falling, partial curve].

`Cc1ccc(Cl)cc1NC(=O)c1cccc(NC(=O)N2CCSc3ncccc32)c1`: under setting [1], the half-maximal activity concentration (AC50) was 15.8 µM [falling, partial curve].

On to `COCCN1C(=O)c2[nH]nc(-c3c(C)cc(C)cc3O)c2C1c1cccc(O)c1` (centres undefined), for which the AC50 under setting [1] was 31.6 µM [falling, single point].

On to `COc1ccc(S(=O)(=O)N(CCc2ccccc2)CC(=O)NCc2ccccc2)cc1OC`, for which, under setting [1], the AC50 is 39.8 µM [falling, single point].

As to `Cc1cccn2c(=O)c(C(=O)NCCc3ccc(Cl)cc3)cnc12`, the AC50 under setting [1] was 31.6 µM [falling, single point].

On to `Cc1cc(C)nc(N(C#N)S(=O)(=O)c2ccccc2)n1`, for which the half-maximal activity concentration (AC50) under setting [1] was 15.8 µM [falling, partial curve].

In the case of `Cc1ccc(-c2nnc(Nc3ccc(Br)cc3)c3ccccc23)cc1S(=O)(=O)NCc1nc2ccccc2[nH]1`, the AC50 under setting [1] is 3.98 µM [falling, full curve].

On to `COc1ccc(-n2ncc3c(N4CCCc5ccccc54)ncnc32)cc1`, for which, under setting [1], the half-maximal activity concentration (AC50) is 25.1 µM [falling, partial curve].

Regarding `COc1cccc(C(=O)Nc2ccccc2-c2nc(-c3ccc(C)cc3)no2)c1`, the AC50 under setting [1] was 0.0398 µM [rising, full curve, poor fit].

Turning to `Cc1ccc(N2C(=O)c3n[nH]c(C)c3C2c2ccc(C(C)C)cc2)cc1` (centres undefined), the AC50 under setting [1] is 20 µM [falling, single point].

As to `COc1ccccc1CN1CCN(C(CC(C)C)c2nnnn2Cc2cccs2)CC1` (centres undefined), under setting [1], the AC50 was 25.1 µM [falling, single point].

Take `O=C1/C(=N/n2cnnc2)c2ccccc2N1Cc1ccccc1`: the half-maximal activity concentration (AC50) by setting is: (measured here: IkB-luc green channel) 31.6 µM [rising, single point]; (measured here: control luc red channel) 20 µM [rising, partial curve].

For the molecule `CC(NC(=O)Nc1ccccc1O)(C(F)(F)F)C(F)(F)F`, the AC50 under setting [1] was 7.94 µM [falling, partial curve].

Turning to `CC(=O)c1cccc(NC(=O)c2sc3nc4c(cc3c2N)CCCC4)c1`, the AC50 under setting [1] is 25.1 µM [falling, single point].

For the molecule `COc1cc(OC)c(NC(=O)NCc2ccc3c(c2)CCN3C(C)=O)cc1Cl`, the AC50 under setting [1] was 10 µM [falling, partial curve].

Source of the values: PubChem BioAssay AID445 (National Center for Advancing Translational Sciences (NCATS), 2006).
